## Assay results

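Genome-wide siRNA knockdown in TC32 Ewing sarcoma cells, comparing luciferase light from an NR0B1-promoter reporter with a CMV-promoter reporter 48 hours after transfection. Each siRNA was applied at 20 nM. A z-score of the log NR0B1-over-CMV signal, less the median of siRNAs with the same seed; more negative means a stronger specific loss of the NR0B1 reporter.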

The strongest results of the screen are mostly left out here. Sequences are the guide (antisense) strand, without overhang.

strand | target gene | seed-corrected z-score
UCCUCCAUCACUUUCUACC | LOC643770 | -1.212
UCAGCUGCAACUAUGACUC | PSMB5 | 0.5495
UCGCAUUCGAGAUUCCUCC | CNOT1 | 0.8403
UUCUCUUUGGGAUCUGUCU | MRPL38 | 0.3985
AAAGUCACCGAGUCGAUCG | COL7A1 | 0.2167
UCUUGUUUGGUUUUGAAGC | TXNL4B | 0.03917
ACACUUGAGGCAGUCUUCG | LMO1 | -0.3061
UGUAGAUGGAGAACAGGCC | TCIRG1 | -0.1548
UUACGUUUUUGAGCUGGUG | BTK | -0.07735
UUUGUGCUGAAUGCAGCUG | LINC00847 | -0.07047
UUGUUUUUCCGAUUCUUCC | ZBTB46 | -0.3854
UUGGAUUCGCGAAAUAAUG | ADAM15 | 1.284
UCCACGUUUACAUUGGAUC | ARHGAP35 | -0.621
UGCGAUCCAGGUAUUCUGC | PTCHD4 | -0.181
UUUCUGACUAGGGCAUUUA | LOC729307 | -0.2712
UUCUUUACGUCGGUGUUGC | ALOX5 | 0.1128
UUAUAGAGAAGAAUGUCUG | CHRNA7 | 0.7842
AUGUUUGUAUCUGCAGUUG | LINC01191 | 0.000244
AAUGUAGUUGUCUCGGUUC | TLE2 | -0.5789
AAACAUACAACCUUUUCUC | SNN | -0.4952
UUAUUUACCAGUGAGUAUG | SCIMP | 0.07408
UGUCUUUACAGUAUCUGUC | ERICH2 | -1.243
UCUCGUACAGCAGACAGCC | NEK6 | -1.058
UCAACCACAUUUGCGGAGC | ZNF714 | 0.1781
UAUUUGAUGACGAAGGUAC | LOC727916 | 0.479
UCAGAGCCUAAGAUUGACC | SLC9B1 | 0.2564
AUUUGGUCUUGAGUGGUGC | ARX | -0.2683
UCUUUGAUGUGACUUUGCC | LOC643659 | 0.4448
UAAUCGCUCCACCAACUGC | USP7 | 0.4325
UAUUCAGACACUCUAAUCU | ZBED6CL | 0.4823
UUUGGUAGCACGGCAGGAC | TMEM247 | 2.238
UCUGUUGCAUCGGCACACC | LHX4 | -0.9948
AUUCGGAUCACUUCGGUAG | RIMS2 | 0.4232
UAUUGUCAUAGAAUCGGUU | SLC6A1 | 0.1971
UUCUGAACAUGUAAAACUU | OR2AT4 | 0.1053
UCUGCAAUAAAUAUCAUCU | CLCF1 | 0.799
AUACUUGAUAUCCUGAACC | C1orf43 | -0.1587
UUUGUCUACCUUGUUACCC | RAB9B | 0.1501
UUUGGUGAUAGCGAACUGG | MATN1 | -0.1517
AUAGUGACCAGAGGAACUC | CFAP70 | 0.7146
UGACAGAUAACCCUUGUGG | MAPK4 | -0.1666
AUAGGGUUUCUCUAGAGUG | ZNF44 | 0.8064
UGAGAUGCCUCAGUUUACC | OCEL1 | 0.4404
UGAAUAAGAAGGGUGGUUC | VWA5B2 | -1.317
UCUGGUAGGAUCAUACUCG | ESR1 | -0.6958
AAAGCUAUUUCCGUCUUCC | DEPDC7 | 0.04801
UAAACCACGGCUUAAGUCC | ARL2BPP3 | -0.7313
ACAAGGGUCAUGACGAUGC | TMEM35 | 0.466
AUGGUUUUUAGUGGUAUCA | MAD2L2 | -0.6034
UUAGUCUUGUGGUGGCUCU | HIST1H2AJ | 1.679
UCAGCUGAGACCAACAGCA | TNFRSF10B | 0.1725
UCCUUGAACAGGGCAAAGG | CYP17A1 | 1.663
UAAGUCCUUGUAAACCUUC | KLK7 | -0.1834
UGGGAUAAUGGGAAGCUGG | CD248 | -0.282
UCUGUAUUUUCCAAUGUUG | LAP3 | -0.2511
AAAGGUGUAAUUUGCCUGC | TEX13B | -1.86
UCUUUGUUCACCGAAGCCU | FAM110D | -0.1102
UCUGGAAACAAUGUGCUUC | SERGEF | -0.4244
UAACUAAUGUAUCAGGAUC | RNF10 | 0.09198

The results are deposited in PubChem (AID1159506; NCATS, 2015).